Measurements: article PMC8517254
These are yes or no findings as the source states them, for the method shown. Binding seen in cells or lysates may run through a third protein. Some results given as binding are weak or reduced against the parent protein; the word gives no strength. Where a sequence is shown, tags or fusion partners need not be part of it.

Molecular target: T1, Polycomb (Pc) (Drosophila (endogenous in S2 cells)) (UniProt P26017)
T1 sequence: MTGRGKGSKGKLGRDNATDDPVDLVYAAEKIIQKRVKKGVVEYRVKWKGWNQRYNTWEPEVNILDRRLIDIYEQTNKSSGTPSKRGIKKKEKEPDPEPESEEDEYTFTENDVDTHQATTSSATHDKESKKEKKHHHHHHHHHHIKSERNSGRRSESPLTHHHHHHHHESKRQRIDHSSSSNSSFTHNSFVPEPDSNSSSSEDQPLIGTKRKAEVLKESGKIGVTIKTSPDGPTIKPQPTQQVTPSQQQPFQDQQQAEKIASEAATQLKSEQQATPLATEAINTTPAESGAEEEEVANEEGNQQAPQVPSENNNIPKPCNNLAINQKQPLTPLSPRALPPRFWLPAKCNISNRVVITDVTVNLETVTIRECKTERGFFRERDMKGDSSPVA
Assay: co-IP; total lysates of FLAG-CCT7 stable S2 cells and empty-vector cells (50 mM NaCl, 50 mM Tris pH 8.0, 1 mM EDTA, 1% Triton X-100; sonicated); precipitated with anti-Pc antibody and DYNA beads at 4°C; Western blot with anti-FLAG and anti-Pc

B1: FLAG-CCT7 (chaperonin containing TCP-1 subunit 7, FLAG-tagged) (protein, UniProt Q9VHL2 1-544)
chain: MQPQIVLLKEGTDSSQGKPQLVSNINACQSIVDAVRTTLGPRGMDKLIVDAHGKATISNDGATIMKLLEIIHPAAKTLVDIAKSQDAEVGDGTTSVVLLAGEFLKQVKPFVEEGVHPRVIIKAIRKALQLCMEKINEMAVQIVEQSKDQQRALLEKCAATAMSSKLIHQQKDFFSRIVVDAVLSLDELLPLNMIGIKKVTGGSLEESQLVSGVAFKKTFSYAGFEMAPKSYDNCKIALLNIELELKAERDNAEIRVDNVKEYQKVVDAEWQILYNKLAKIHESGANVVLSKLPIGDVATQYFADRDIFCAGRVPEEDLKRTMKACGGAVMTTANDIKPNVLGLCEHFEERQVGGERFNLFQGCPNAKTSTLILRGGAEQFLEETERSLHDAIMIVRRTIKHDSVVAGGGAIEMELSKLLRDYSRTIAGKEQLLIAAIAKGLEIIPRQLCDNAGFDATNILNKLRQKHAQGGQWYGVDINKEDISDNYEQCVWEPSIIKINALTAAAEAACMILSVDETIKSPKAGEPPMAGGGMGMGRGMGRPM
For B1, the binding was “binds”.
